In patent publication WO2017153426A1 (dated 2017) one finds binding data, which are given here for one molecule.

By UniProt entry, the sequences of proteins in these tests, tags left out. Where a name states a change or a piece, a line headed by the entry shows the natural chain unless it says otherwise.
UniProt Q969D9: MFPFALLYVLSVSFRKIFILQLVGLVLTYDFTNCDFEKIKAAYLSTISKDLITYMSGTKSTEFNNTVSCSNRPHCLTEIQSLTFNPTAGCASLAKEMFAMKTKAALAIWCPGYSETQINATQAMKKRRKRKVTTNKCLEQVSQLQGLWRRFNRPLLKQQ

The target in this assay is full length TSLP: his (human) (UniProt Q969D9). In words: ForteBio Octet BLI, TSLP:his on anti-his sensor tips, dAb at 500 or 1000 nM.

No constants are given. Whether binding was seen depends on the method and setting. Some binding calls cover weakened binding; strength is not graded here.

B1: DOM30h-440-81/86 (other)
chain: DIQMTQSPSSLSASVGDRVTITCRASRPIRNWLDWYQQKPGKAPKLLIWGASHLQSGVPSRFSGSGSGTDFTLTISSLQPEDFATYYCVQIGEDPVTFGQGTKVEIK
Regarding B1, the binding entry is “binds”.
